Measurements from paper PMC11696352.
These are yes or no findings as the source states them, for the method shown. Binding seen in cells or lysates may run through a third protein. Binding can be weak; no strength is given.

Target: NKRF truncation mutant M1 (C-terminal fragment)
Assay: co-IP; HA-tagged NKRF WT or truncated mutants (M1-M5) overexpressed in 293T or HCT116 cells (control or GCLM knock-down, oxaliplatin 40 μM, 24 h); anti-HA immunoprecipitation

B1: GCLM (glutamate-cysteine ligase modifier subunit), endogenous (protein, UniProt P48507 1-274)
chain: MGTDSRAAKALLARARTLHLQTGNLLNWGRLRKKCPSTHSEELHDCIQKTLNEWSSQINPDLVREFPDVLECTVSHAVEKINPDEREEMKVSAKLFIVESNSSSSTRSAVDMACSVLGVAQLDSVIIASPPIEDGVNLSLEHLQPYWEELENLVQSKKIVAIGTSDLDKTQLEQLYQWAQVKPNSNQVNLASCCVMPPDLTAFAKQFDIQLLTHNDPKELLSEASFQEALQESIPDIQAHEWVPLWLLRYSVIVKSRGIIKSKGYILQAKRRGS
binding: binds
